± gives the standard deviation. The entries are a selection whose mix differs from that of the whole data set. Many of these values have a large error.
Test system: MIWI (PIWIL1) piRISC loaded with L1MC piRNA (30 nt)
Test: pre-steady-state target cleavage rate (min^-1); MIWI and MILI are mouse PIWI proteins and EfPiwi is from a freshwater sponge; tags in brackets are library labels; higher = faster piRNA-guided slicing of the target
Settings: guide: L1MC piRNA 5'p-UAACUAAAUACUAUGCAAGCUGUAGGUCCU
In short: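 Sequencing of uncleaved targets, normalised to depth and to weakly complementary targets, was the readout of this Cleave-'n-Seq assay. A transcribed, DNA-blocked target RNA library (0.1 nM) was mixed with 1 nM active affinity-purified piRISC carrying one synthetic guide, with or without 500 nM GTSF1 partner protein, in HEPES–potassium acetate buffer at 33 °C for 0–8 or 0–960 min. Three trials were pooled, k3 was capped at 0.0001 min^-1, and a burst-and-steady-state fit gave the pre-steady-state cleavage rate.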

[1] = auxiliary factor: 500 nM mouse GTSF1
[2] = auxiliary factor: none (no GTSF1)

Sequence	pre-steady-state target cleavage rate [1]	pre-steady-state target cleavage rate [2]
UCGAGGUACAGCUUGCAUAGUAUUUAGUUA	1.04 ± 0.066	0.0604 ± 0.0095
UGGAGCUUCAGCUUGCAUAGUAUUUAGUUA	1.34 ± 0.048	0.0706 ± 0.01
UGGACCUACAGGUUGGAUAGUAUUUAGUUA	1.33 ± 0.091	0.0484 ± 0.0079
UGGACCUACAGCUUGCAUAGUAUUUUAGUUA	1.38 ± 0.079	0.0467 ± 0.012
ACGACCUUCAGCUUGCAUAGUAUUUAGUUA	1.45 ± 0.042	0.0921 ± 0.015
UCCAGCUACAGCUUGCAUAGUAUUUAGUUA	0.682 ± 0.042	0.0438 ± 0.0056
UGGACCUACAGCUCGCAUAGUAUUUAGUUA	1.54 ± 0.096	0.0604 ± 0.0083
UCGACCUUCAGCUUGCAUAGUAUUUAGUUA	1.51 ± 0.047	0.0696 ± 0.012
AGGACCCUACAGCUUGCAUAGUAUUUAGUUA	1.24 ± 0.083	0.0716 ± 0.012
UGAGACCUACAGCUUGCAUAGUAUUUAGUUA	1.49 ± 0.1	0.0826 ± 0.015
UGGACCUACAUCUUGCAUAGUAUUUAGUUA	1.38 ± 0.043	0.0737 ± 0.012
UCCUGGAUGUCGAUGCAUAGUAUAUUAGUUA	0.000708 ± 0.015	0.00127 ± 0.0062
UGGACCUACAGCUUGCAUAGUUUUUACUUA	0.0927 ± 0.013	0.0125 ± 0.0027
UGGAGCCUACAGCUUGCAUAGUAUUUAGUUA	1.41 ± 0.1	0.0757 ± 0.013
UCGACGUACAGCUUGCUUAGUAUUUAGUUA	1.63 ± 0.09	0.0366 ± 0.0073
UGGACGAUCAGCUUGCAUAGUAUUUAGUUA	1.47 ± 0.071	0.0852 ± 0.016
UCCUGCAACAGCUUGCAUUGUAUUUAGUUA	0.964 ± 0.068	0.0397 ± 0.01
UGGUCGUACAGCUUGCAUAGUAUUUAGUUA	1.33 ± 0.056	0.073 ± 0.0095
AAGACCUACAGCUUGCAUAGUAUUUAGUUA	1.69 ± 0.062	0.0921 ± 0.015
UCGACCUACAGCCUUGCAUAGUAUUUAGUUA	1.28 ± 0.046	0.0668 ± 0.014
UGGUCCAACAGCUUGCAUAGUAUUUAGUUA	0.852 ± 0.034	0.0715 ± 0.01
UCCACCUACAGCAUGCAUAGUAUUUAGAUA	0.423 ± 0.045	0.00605 ± 0.0027
AGGACCUACAGCAAGCAUAGUAUUUAGUUA	1.2 ± 0.069	0.0105 ± 0.0035
UCGUCCUACAGCAUGCAUAGUAUUUAGUUA	1.26 ± 0.047	0.0282 ± 0.0049
UGGACCUACAGCUUGCAUACGUAUUUAGUUA	0.00248 ± 0.0055	0.00051 ± 0.013

Single records, from the list above. Values in the order: pre-steady-state target cleavage rate [1]	pre-steady-state target cleavage rate [2]
AGGACCCUACAGCUUGCAUAGUAUUUAGUUA is listed as 1.24 ± 0.083	0.0716 ± 0.012
UGAGACCUACAGCUUGCAUAGUAUUUAGUUA is listed as 1.49 ± 0.1	0.0826 ± 0.015
UCGACCUACAGCCUUGCAUAGUAUUUAGUUA is listed as 1.28 ± 0.046	0.0668 ± 0.014

Later entries

Sequence	pre-steady-state target cleavage rate [1]	pre-steady-state target cleavage rate [2]
UCCUGGAUGUCGAUGGAUAGUAUUUAGUUA	0.00096 ± 0.0088	0.000529 ± 0.012
AGGACCUACAGCUUGCAUUGUAUUUAGUUA	0.926 ± 0.04	0.0656 ± 0.015
UGGACCUCACAGCUUGCAUAGUAUUUAGUUA	1.46 ± 0.084	0.0711 ± 0.014
UGGACCAACAGCUUGCAAAGUAUUUAGUUA	1.38 ± 0.062	0.0368 ± 0.0072
UCCAUCUACAGCUUGCAUAGUAUUUAGUUA	0.731 ± 0.031	0.0538 ± 0.0076
UGGACCUACUGCUUGCAUAGUAAUUAGUUA	0.866 ± 0.04	0.033 ± 0.0084
AGCUCCUACAGCUUGCAUAGUAUUUAGUAA	1.01 ± 0.069	0.0506 ± 0.011
UCGACCUACAGCUUGGUUAGUAUUUACAAA	0.0826 ± 0.02	0.00101 ± 0.0065
UCCAGCUACACCUUGCAUAGUAUUUAGUUA	0.797 ± 0.034	0.0443 ± 0.0068
UCCUGGAUGUCGUUGCAUAGUAUGUUAGUUA	0.00189 ± 0.0066	0.00137 ± 0.0059
UCGACCUACAGCUUGCUAUGUAUUUUCAAA	0.00299 ± 0.0043	0.000401 ± 0.012
AGGACCUACAGCUCGCAUAGUAUUUAGUUA	1.35 ± 0.068	0.0694 ± 0.013
UGGUCCUACAGCUUGCAAAGUAUUUAGUUA	1.13 ± 0.04	0.0413 ± 0.0067
UGGACGUACAGCUUGCAUAGUAUUUUGUUA	0.75 ± 0.055	0.052 ± 0.009
UCGACCUACAGCAAGCAUAGUAUUUAGUAA	0.818 ± 0.066	0.00275 ± 0.0026
UGGACCUACACCUUGCUUAGUAUUUAGUUA	1.1 ± 0.062	0.0262 ± 0.0061
UGGACCUACAGCUUGCAUAGAAUUUUCAAA	0.239 ± 0.048	0.00132 ± 0.006
UCGACCUACAGCUUCCAUAGUAAUUAGUUA	0.0526 ± 0.017	0.00134 ± 0.0044
AGCACCUAGAGCUUGCAUAGUAUUUAGUUA	1.47 ± 0.37	0.00468 ± 0.0035
AGGACGAACAGCUUGCAUAGUAUUUAGUUA	1.27 ± 0.045	0.084 ± 0.016
UGGACCUACAGCUUCGUUAGUAUUUUCAAA	0.000805 ± 0.0076	0.000617 ± 0.0084
UGGACCAUGAGCUUGCAUAGUAUUUAGUAA	0.675 ± 0.045	0.0285 ± 0.0075
UCCUGGAUGUCGAACCAUACAAUUUAGUUA	0.000215 ± 0.015	0.000197 ± 0.022
UGGACCUACGAGCUUGCAUAGUAUUUAGUUA	0.657 ± 0.11	0.0557 ± 0.013

Source: the supplement of paper PMC10338343
